Data as given in PubChem BioAssay AID493246 (Drosophila RNAi Screening Center, 2011)

Test: 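Genes fly cells need to grow and stay alive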 (primary screen)
Cell system: Drosophila Kc and S2R+ cells
Knock-down reagent: long dsRNA against Drosophila genes
Measured: 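Raw, unnormalised count of remaining cells in each well; per-plate z-scores of cell number underlie the calls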
Reading the numbers: Kc cell number and S2R+ cell number: higher = more cells remaining
Call rule: 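Counted as a hit if cell number falls by a z-score of at least 3 within its plate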
The deposit covers about 21,000 reagents; below is an unselected part of those that have a named target and a result. In the full data, 429 (2%) are marked active. 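Values are raw and not normalised between plates; calls rest on per-plate z-scores that were not deposited.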 A number with no mark means an inactive call. Names joined by + are all predicted targets of the reagent. Not stated in the record: the amount of reagent, the time to read-out.

Kc cell number, rep 1	Kc cell number, rep 2	S2R+ cell number, rep 1	S2R+ cell number, rep 2	predicted target	dsRNA
1.47e6	1.42e6	1.20e6	1.23e6	CG10163 (GeneID 38728)	DRSC09710
1.62e6	1.61e6	1.24e6	1.32e6	Elp6 (GeneID 41641)	DRSC16571
1.56e6	1.66e6	1.33e6	3.44e5	CG17325 + CG42305	DRSC02602
1.34e6	1.38e6	1.10e6	1.16e6	CG12129 (GeneID 36044)	DRSC06105
1.64e6	1.68e6	1.27e6	1.47e6	Peritrophin-15a (GeneID 50433)	DRSC02636
5.58e5		9.18e5		LysRS (GeneID 31904)	DRSC17824
1.50e6	1.51e6	9.39e5	1.05e6	Lerp (GeneID 43223)	DRSC14750
1.50e6	1.52e6	1.02e6	1.12e6	Lerp (GeneID 43223)	DRSC14751
1.44e6	1.43e6	9.71e5	1.06e6	Lerp (GeneID 43223)	DRSC16030
1.50e6	1.51e6	9.62e5	1.07e6	Lerp (GeneID 43223)	DRSC16031
1.21e6	1.39e6	1.05e6	9.53e5	CG16896 (GeneID 37977)	DRSC04284
1.36e6	1.51e6	1.09e6	1.20e6	CG33267 (GeneID 2768969)	DRSC09120
1.43e6	1.52e6	9.84e5	1.16e6	kraken (GeneID 33265)	DRSC00824
1.46e6	1.37e6	1.01e6	1.20e6	CG32280 (GeneID 317952)	DRSC08024
1.66e6	1.70e6	1.08e6	1.22e6	qm (GeneID 38816)	DRSC11386
1.53e6	1.63e6	1.32e6	3.37e5	Cht10 (GeneID 3355116)	DRSC03766
1.31e6	1.36e6	1.06e6	1.11e6	Cht10 (GeneID 3355116)	DRSC03767
1.43e6	1.56e6	1.31e6	3.41e5	Cht10 (GeneID 3355116)	DRSC03768
1.23e6	1.24e6	1.25e6	1.36e6	CG3349 (GeneID 39623)	DRSC10359
1.83e6	1.79e6	1.28e6	1.45e6	CG8323 (GeneID 36566)	DRSC07149
1.62e6	1.64e6	9.39e5	9.57e5	Rbm13 (GeneID 31818)	DRSC17749
1.56e6	1.61e6	1.26e6	1.36e6	CG9541 (GeneID 34220)	DRSC03257
5.25e5		8.19e5		CG4313 (GeneID 31169)	DRSC18514
1.67e6	1.65e6	1.23e6	1.41e6	S-Lap4 (GeneID 326188)	DRSC10957
1.78e6	1.81e6	1.39e6	1.54e6	CG14731 (GeneID 41442)	DRSC14952
1.53e6	1.72e6	1.28e6	1.41e6	CG15594 (GeneID 40768)	DRSC12280
1.39e6	1.38e6	1.12e6	1.23e6	kek4 (GeneID 34718)	DRSC03220
1.61e6	1.60e6	1.14e6	1.29e6	Hou (GeneID 32852)	DRSC20001
1.37e6	1.34e6	1.21e6	1.29e6	ft (GeneID 33627)	DRSC00819
1.27e6	1.24e6	5.95e5	5.31e5	Sam-S (GeneID 48552)	DRSC00758
1.55e6	1.54e6	1.21e6	1.35e6	CG3907 (GeneID 37832)	DRSC04432
1.60e6	1.67e6	9.34e5	1.17e6	NimA (GeneID 318930)	DRSC01353
1.55e6	1.56e6	1.03e6	1.14e6	CG14062 (GeneID 43389)	DRSC14725
1.56e6	1.61e6	1.28e6	1.36e6	PpY-55A (GeneID 48532)	DRSC07513
1.57e6	1.56e6	1.05e6	1.24e6	CG14628 (GeneID 31057)	DRSC18626
1.39e6	1.47e6	1.02e6	1.22e6	ArgRS-m (GeneID 40929)	DRSC14186
1.38e6	1.53e6	1.27e6	1.11e6	Mcad (GeneID 38864)	DRSC09871
1.30e6	1.47e6	1.24e6	1.36e6	CG14864 (GeneID 41846)	DRSC14987
1.60e6	1.58e6	1.03e6	1.17e6	ChAT (GeneID 42249)	DRSC13314
1.22e6	1.23e6	1.10e6	1.17e6	ChAT (GeneID 42249)	DRSC16609
1.44e6	1.42e6	1.07e6	1.12e6	CG12684 (GeneID 31390)	DRSC17875
1.47e6	1.59e6	1.24e6	1.31e6	CG8788 (GeneID 35932)	DRSC07267
1.37e6	1.41e6	1.35e6	1.41e6	CG14720 (GeneID 41415)	DRSC14942
1.78e6	1.67e6	1.04e6	1.12e6	CG17784 (GeneID 42909)	DRSC15268
1.58e6	1.80e6	1.25e6	1.46e6	Osi14 (GeneID 40770)	DRSC12368
1.46e6	1.39e6	1.06e6	1.16e6	Prdm13 (GeneID 38713)	DRSC09970
1.19e6	1.57e6	1.08e6	1.16e6	CG42557 + CG42558	DRSC13963
5.01e5		8.85e5		CG42557 + CG42558	DRSC16329
1.27e6	1.39e6	1.04e6	1.02e6	NC2alpha (GeneID 37471)	DRSC04059
1.47e6	1.44e6	9.80e5	1.14e6	CG33752 (GeneID 3771860)	DRSC05351
1.98e6	1.72e6	1.17e6	1.35e6	tkv (GeneID 33753)	DRSC00860
1.31e6	1.31e6	6.33e5	1.09e6	tkv (GeneID 33753)	DRSC03623
1.45e6	1.22e6	1.13e6	1.25e6	H15 (GeneID 33769)	DRSC03339
1.52e6	1.49e6	1.11e6	1.27e6	CG9016 (GeneID 33822)	DRSC03127
1.66e6	1.70e6	1.35e6	1.45e6	GstD6 (GeneID 48339)	DRSC16687
1.67e6	1.70e6	1.05e6	1.16e6	Gr2a (GeneID 31093)	DRSC18603
1.56e6	1.56e6	1.07e6	1.21e6	GABA-B-R3 (GeneID 33248)	DRSC00561
1.34e6	1.40e6	7.55e5	8.01e5	CG8192 (GeneID 36723)	DRSC07101
1.54e6	1.51e6	1.15e6	1.22e6	ATPsynepsilonL (GeneID 326144)	DRSC14548
